Experimental data published in publication PMC3765780, “Pyocyanin-induced mucin production is associated with redox modification of FOXA2”.

Molecular target: T1, FOXA2 (immunoprecipitated from PCN-exposed NCI-H292 cells) (UniProt Q9Y261)
T1 sequence (looked up, limits assumed): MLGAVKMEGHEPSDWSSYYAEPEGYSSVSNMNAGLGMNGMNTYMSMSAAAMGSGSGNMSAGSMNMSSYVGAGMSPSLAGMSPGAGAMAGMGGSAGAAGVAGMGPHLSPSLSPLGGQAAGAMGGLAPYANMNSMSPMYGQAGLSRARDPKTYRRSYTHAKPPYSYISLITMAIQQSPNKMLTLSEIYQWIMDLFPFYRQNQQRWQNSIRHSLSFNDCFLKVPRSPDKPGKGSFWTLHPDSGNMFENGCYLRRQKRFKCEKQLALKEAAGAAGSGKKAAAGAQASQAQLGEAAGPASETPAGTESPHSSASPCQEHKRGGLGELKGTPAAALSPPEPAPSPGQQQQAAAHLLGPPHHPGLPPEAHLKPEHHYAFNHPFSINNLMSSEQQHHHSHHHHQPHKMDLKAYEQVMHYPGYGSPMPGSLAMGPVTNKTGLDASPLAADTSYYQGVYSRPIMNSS
Test: EMSA
Details: equal FOXA2 amount, 10 mM Hepes pH 7.9, 1 mM EDTA, 5 mM MgCl2, 10% glycerol, DTT (printed '0.5 m MDTT', probably 0.5 mM), 1 mg/ml BSA, 1 ug poly(dI-dC), 2.5 ug FOXA2, 20 min, native protein

Sequence: CCTCCCCGAGAGCAAACACACGTGGCTGGA (double strand) [MUC5B promoter FOXA2 site probe]
- binding result (cells exposed to 1.6 ug/ml PCN): binds more weakly
- binding result (cells exposed to 6.25 ug/ml PCN): binds more weakly

Construct, isoform or probe ends are uncertain for at least one entry. A weaker result is weaker than the reference pair of the same experiment. Tags and fusion partners may be left off the protein sequences shown.
